In publication PMC6843027:
Results are given in words; binding and its absence hold for the method and conditions named. Binding seen in cells or lysates may run through a third protein. Some results given as binding are weak or reduced against the parent protein; the word gives no strength. Tags and fused reporters may be left off the sequences shown.

Protein sequences, listed by entry. Tags and fused reporters are not part of them.
UniProt Q13526: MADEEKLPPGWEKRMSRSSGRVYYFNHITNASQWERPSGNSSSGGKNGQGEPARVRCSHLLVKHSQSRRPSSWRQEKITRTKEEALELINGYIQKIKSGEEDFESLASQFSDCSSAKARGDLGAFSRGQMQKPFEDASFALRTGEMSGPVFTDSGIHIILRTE

Target: T1, full-length PARN (His-PARN) (UniProt O95453)
T1 sequence: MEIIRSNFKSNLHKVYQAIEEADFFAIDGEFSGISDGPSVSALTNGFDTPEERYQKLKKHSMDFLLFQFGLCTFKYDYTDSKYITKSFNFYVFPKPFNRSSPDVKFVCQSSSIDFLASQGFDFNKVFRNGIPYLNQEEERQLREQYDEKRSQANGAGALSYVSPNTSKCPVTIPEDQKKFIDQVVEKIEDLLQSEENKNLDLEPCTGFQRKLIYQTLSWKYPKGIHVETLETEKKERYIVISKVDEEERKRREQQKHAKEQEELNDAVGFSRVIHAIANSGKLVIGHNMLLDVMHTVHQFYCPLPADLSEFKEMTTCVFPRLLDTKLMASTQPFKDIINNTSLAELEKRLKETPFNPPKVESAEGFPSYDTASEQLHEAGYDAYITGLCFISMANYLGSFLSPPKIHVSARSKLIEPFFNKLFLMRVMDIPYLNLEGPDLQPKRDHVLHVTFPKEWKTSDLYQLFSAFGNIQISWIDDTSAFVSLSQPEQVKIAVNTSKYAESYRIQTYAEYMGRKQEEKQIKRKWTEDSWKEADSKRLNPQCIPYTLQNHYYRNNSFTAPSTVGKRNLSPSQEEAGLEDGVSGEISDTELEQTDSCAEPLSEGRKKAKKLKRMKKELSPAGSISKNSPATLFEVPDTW
Experiment: pull-down; 2 ug of His- or GST-fusion protein bound to beads incubated with 200 ug nuclear extract of HCT116 cells, untreated or UV-treated; NEs treated with RNase A; immunoblot; only the target purified

| binding | Substance |
| --- | --- |
| binds | peptidyl-prolyl isomerase Pin1, endogenous nuclear (from UniProt Q13526 1-163) (enzyme) |
| binds | tumor suppressor p53, endogenous nuclear (from UniProt P04637 1-393) |
